According to paper PMC3032750:
Results are given in words; binding and its absence hold for the method and conditions named. Some results given as binding are weak or reduced against the parent protein; the word gives no strength. Where a sequence is shown, tags or fusion partners need not be part of it.

Chains of the proteins cited; added tags and fusions are not shown.
UniProt P03129: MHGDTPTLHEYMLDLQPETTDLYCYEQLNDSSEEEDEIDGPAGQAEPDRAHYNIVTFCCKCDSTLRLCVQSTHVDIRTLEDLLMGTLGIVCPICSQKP

Biological target: HPV16 E7 oncoprotein, full-length recombinant (HPV 16) (UniProt P03129)
Test: SPR; BIAcoreX; E7 amine-coupled to a CM5 chip; GST-pRb injected at 0-400 nM, followed by scFv 43M2 at 200 nM, 20 ul/min; HBS-P (10 mM Hepes pH 7.4, 0.15 M NaCl, 0.005% P20), 25 C; both purified

B1: GST-pRb fusion protein (retinoblastoma protein) (protein, UniProt P06400 1-928)
chain: MPPKTPRKTAATAAAAAAEPPAPPPPPPPEEDPEQDSGPEDLPLVRLEFEETEEPDFTALCQKLKIPDHVRERAWLTWEKVSSVDGVLGGYIQKKKELWGICIFIAAVDLDEMSFTFTELQKNIEISVHKFFNLLKEIDTSTKVDNAMSRLLKKYDVLFALFSKLERTCELIYLTQPSSSISTEINSALVLKVSWITFLLAKGEVLQMEDDLVISFQLMLCVLDYFIKLSPPMLLKEPYKTAVIPINGSPRTPRRGQNRSARIAKQLENDTRIIEVLCKEHECNIDEVKNVYFKNFIPFMNSLGLVTSNGLPEVENLSKRYEEIYLKNKDLDARLFLDHDKTLQTDSIDSFETQRTPRKSNLDEEVNVIPPHTPVRTVMNTIQQLMMILNSASDQPSENLISYFNNCTVNPKESILKRVKDIGYIFKEKFAKAVGQGCVEIGSQRYKLGVRLYYRVMESMLKSEEERLSIQNFSKLLNDNIFHMSLLACALEVVMATYSRSTSQNLDSGTDLSFPWILNVLNLKAFDFYKVIESFIKAEGNLTREMIKHLERCEHRIMESLAWLSDSPLFDLIKQSKDREGPTDHLESACPLNLPLQNNHTAADMYLSPVRSPKKKGSTTRVNSTANAETQATSAFQTQKPLKSTSLSLFYKKVYRLAYLRLNTLCERLLSEHPELEHIIWTLFQHTLQNEYELMRDRHLDQIMMCSMYGICKVKNIDLKFKIIVTAYKDLPHAVQETFKRVLIKEEEYDSIIVFYNSVFMQRLKTNILQYASTRPPTLSPIPHIPRSPYKFPSSPLRIPGGNIYISPLKSPYKISEGLPTPTKMTPRSRILVSIGESFGTSEKFQKINQMVCNSDRVLKRSAEGSNPPKPLKKLRFDIEGSDEADGSKHLPGESKFQQKLAEMTSTRTRMQKQKMNDSMDTSNKEEK
Q: With B1 as the binder, how does the binding read?
A: binds
